US5356794A, “Purified enzymatic preparation derived from chromobacterium violaceum, method for preparing it and its use in the production of α, β-dehydrotryptophanyl-peptides” (priority 1991, dated 1994)
Part of at least one peptide drawing is inferred or uncertain, most often the ends. Bridge positions count the residues as written; N and C are the ends. Peptide text beside a SMILES is read from it.

System: L-Trp 2',3'-oxidase
Experiment: Kinetics of dehydrogenation of substrates by purified L-Trp 2',3'-oxidase (appearance of dehydro product at 330 nm)
Assay type: biochemical, Chromobacterium violaceum
Details: substrate of L-Trp 2',3'-oxidase, in the presence of catalase, 30° C., 50 mM succinate buffer
Method: Measurements of the specific activity of the enzyme as well as all the kinetic experiments in the steady state, were performed under the standard conditions defined below:
Substrate: 1 mMN-acetyl-L-tryptophanamide (NATA)
Buffer: 50 mM succinate, pH 5.5
by directly monitoring the appearance of the dehydro product at 330 nm (FIG. 3). The specific activity (As) of fraction Q1 is calculated on the basis of a molar extinction coefficient at 330 nm of 18.8 mM^-1.cm^-1 determined in the laboratory (against ε330 =19.89 mM^-1.cm^-1 in the literature; TAKAI et al. mentioned above). NATA, which represents the smallest peptide chain possible, is used as reference substrate for the enzymatic reaction. The specific activity of the preparation (As) is estimated at 39.5±3.1 units for NATA (an enzymatic unit represents a mole of product formed per second per mole of heme).
The dehydrogenation of NATA was monitored as a function of the pH (pH 3-5, 6-8) at a temperature of 30° C. in 50 mM succinate buffer, pH 5.6. The reaction products are analysed and purified by reversed-phase HPLC and then freeze-dried and analysed by mass spectrometry (desorption by chemical ionisation: DCI). ΔNATA is the only product of the enzymatic reaction which is characterised by HPLC (single peak, γmax 333 nm) and by mass spectrophotometry (MH^+ =244).
The procedure is as in Example 1.7).
All the reactions were performed in the presence of catalase. In each case, the kinetic constants (Kcat and Km) are calculated so as to evaluate the efficiency of the enzyme for each type of substrate.

SMILES: CC(C)C[C@H](NC(=O)[C@H](Cc1ccc(O)cc1)NC(=O)[C@@H]1CCCN1C(=O)[C@@H](NC(=O)[C@H](CC(=O)O)NC(=O)[C@@H]1CCCN1C(=O)[C@@H]1CSSC[C@H](NC(=O)[C@@H](NC(=O)[C@H](Cc2ccc(O)cc2)NC(=O)[C@H](Cc2ccc(O)cc2)NC(=O)[C@@H](NC(=O)[C@H](Cc2c[nH]c3ccccc23)NC(=O)[C@H](Cc2c[nH]cn2)NC(=O)[C@H](CCCCN)NC(=O)[C@H](CCCCN)NC(=O)[C@@H](N)CCCCN)C(C)C)[C@@H](C)O)C(=O)N1)[C@@H](C)O)C(=O)O [KKacoR 15] (H-KKKHWVYYTCCPDTPYL-OH; disulfide 10-11)
- Kcat: 2 s⁻¹
- Km: 272 µM

SMILES: CC(C)C[C@H](NC(=O)CNC(=O)[C@H](Cc1ccc(O)cc1)NC(=O)[C@H](CO)NC(=O)[C@H](Cc1c[nH]c2ccccc12)NC(=O)[C@H](Cc1c[nH]cn1)NC(=O)[C@@H]1CCC(=O)N1)C(=O)N[C@@H](CCCNC(=N)N)C(=O)N1CCC[C@H]1C(=O)NCC(N)=O [LHRN]
- Kcat: 20 s⁻¹
- Km: 71 µM
